Data taken from the supplement of paper PMC10849652.
The other results are listed elsewhere or left out.

Amino acid sequences for entries named in this document (tags omitted). A change or cut given only in a name is not applied to a line headed by its entry.
UniProt Q9NY61: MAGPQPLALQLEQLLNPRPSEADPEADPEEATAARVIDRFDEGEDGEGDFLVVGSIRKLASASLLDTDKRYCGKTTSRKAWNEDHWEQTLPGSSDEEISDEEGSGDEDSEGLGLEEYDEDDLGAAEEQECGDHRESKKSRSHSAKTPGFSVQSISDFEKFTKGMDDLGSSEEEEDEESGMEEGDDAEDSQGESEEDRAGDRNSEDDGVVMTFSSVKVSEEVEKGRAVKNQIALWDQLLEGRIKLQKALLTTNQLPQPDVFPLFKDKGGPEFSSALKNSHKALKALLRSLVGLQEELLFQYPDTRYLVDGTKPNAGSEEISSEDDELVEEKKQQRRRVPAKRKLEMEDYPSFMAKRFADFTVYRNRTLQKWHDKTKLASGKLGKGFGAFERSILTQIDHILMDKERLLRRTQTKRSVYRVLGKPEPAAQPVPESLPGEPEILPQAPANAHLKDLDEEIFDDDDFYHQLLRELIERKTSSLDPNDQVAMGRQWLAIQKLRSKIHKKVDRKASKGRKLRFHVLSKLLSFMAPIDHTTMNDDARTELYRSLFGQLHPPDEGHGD
UniProt Q99758: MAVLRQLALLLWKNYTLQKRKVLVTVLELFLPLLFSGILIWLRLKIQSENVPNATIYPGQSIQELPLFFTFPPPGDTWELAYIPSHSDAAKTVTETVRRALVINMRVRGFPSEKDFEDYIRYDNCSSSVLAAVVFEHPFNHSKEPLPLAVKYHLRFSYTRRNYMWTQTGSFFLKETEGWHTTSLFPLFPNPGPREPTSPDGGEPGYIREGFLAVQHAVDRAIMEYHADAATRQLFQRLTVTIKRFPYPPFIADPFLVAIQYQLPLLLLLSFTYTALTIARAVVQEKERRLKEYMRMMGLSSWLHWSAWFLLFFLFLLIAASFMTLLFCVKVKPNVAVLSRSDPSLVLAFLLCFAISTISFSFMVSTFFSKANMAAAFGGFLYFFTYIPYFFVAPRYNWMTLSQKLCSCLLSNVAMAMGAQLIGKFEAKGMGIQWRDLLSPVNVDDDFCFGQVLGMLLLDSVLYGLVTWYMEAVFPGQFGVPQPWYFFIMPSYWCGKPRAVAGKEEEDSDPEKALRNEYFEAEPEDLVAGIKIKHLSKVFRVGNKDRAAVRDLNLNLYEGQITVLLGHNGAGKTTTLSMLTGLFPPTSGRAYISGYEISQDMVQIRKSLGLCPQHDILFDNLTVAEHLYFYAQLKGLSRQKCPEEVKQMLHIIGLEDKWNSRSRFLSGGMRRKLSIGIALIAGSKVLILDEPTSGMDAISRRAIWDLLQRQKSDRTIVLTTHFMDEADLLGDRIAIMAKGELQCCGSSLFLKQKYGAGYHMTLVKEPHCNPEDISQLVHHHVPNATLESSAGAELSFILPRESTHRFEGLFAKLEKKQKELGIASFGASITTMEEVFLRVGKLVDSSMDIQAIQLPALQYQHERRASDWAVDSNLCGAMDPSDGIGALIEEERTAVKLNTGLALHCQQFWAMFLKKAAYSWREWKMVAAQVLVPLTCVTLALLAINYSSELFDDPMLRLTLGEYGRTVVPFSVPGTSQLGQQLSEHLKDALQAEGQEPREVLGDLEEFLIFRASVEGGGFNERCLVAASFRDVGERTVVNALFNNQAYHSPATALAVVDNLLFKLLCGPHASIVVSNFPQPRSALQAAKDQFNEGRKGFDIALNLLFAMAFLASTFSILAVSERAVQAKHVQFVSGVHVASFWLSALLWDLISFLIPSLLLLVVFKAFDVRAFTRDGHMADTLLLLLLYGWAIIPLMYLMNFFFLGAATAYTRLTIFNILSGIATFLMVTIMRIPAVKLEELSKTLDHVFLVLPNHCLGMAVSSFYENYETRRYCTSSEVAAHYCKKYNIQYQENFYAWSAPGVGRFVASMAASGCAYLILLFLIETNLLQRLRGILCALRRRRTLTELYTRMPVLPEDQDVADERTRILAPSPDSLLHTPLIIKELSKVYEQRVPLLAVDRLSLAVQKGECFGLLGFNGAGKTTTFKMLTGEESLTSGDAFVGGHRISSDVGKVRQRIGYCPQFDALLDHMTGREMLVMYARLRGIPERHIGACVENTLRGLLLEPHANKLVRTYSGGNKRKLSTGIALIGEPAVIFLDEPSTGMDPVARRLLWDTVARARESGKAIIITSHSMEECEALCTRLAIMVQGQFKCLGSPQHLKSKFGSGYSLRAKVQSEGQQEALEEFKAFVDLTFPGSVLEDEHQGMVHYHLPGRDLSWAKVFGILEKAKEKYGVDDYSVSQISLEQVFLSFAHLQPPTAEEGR
UniProt P01023, whole entry, looked up: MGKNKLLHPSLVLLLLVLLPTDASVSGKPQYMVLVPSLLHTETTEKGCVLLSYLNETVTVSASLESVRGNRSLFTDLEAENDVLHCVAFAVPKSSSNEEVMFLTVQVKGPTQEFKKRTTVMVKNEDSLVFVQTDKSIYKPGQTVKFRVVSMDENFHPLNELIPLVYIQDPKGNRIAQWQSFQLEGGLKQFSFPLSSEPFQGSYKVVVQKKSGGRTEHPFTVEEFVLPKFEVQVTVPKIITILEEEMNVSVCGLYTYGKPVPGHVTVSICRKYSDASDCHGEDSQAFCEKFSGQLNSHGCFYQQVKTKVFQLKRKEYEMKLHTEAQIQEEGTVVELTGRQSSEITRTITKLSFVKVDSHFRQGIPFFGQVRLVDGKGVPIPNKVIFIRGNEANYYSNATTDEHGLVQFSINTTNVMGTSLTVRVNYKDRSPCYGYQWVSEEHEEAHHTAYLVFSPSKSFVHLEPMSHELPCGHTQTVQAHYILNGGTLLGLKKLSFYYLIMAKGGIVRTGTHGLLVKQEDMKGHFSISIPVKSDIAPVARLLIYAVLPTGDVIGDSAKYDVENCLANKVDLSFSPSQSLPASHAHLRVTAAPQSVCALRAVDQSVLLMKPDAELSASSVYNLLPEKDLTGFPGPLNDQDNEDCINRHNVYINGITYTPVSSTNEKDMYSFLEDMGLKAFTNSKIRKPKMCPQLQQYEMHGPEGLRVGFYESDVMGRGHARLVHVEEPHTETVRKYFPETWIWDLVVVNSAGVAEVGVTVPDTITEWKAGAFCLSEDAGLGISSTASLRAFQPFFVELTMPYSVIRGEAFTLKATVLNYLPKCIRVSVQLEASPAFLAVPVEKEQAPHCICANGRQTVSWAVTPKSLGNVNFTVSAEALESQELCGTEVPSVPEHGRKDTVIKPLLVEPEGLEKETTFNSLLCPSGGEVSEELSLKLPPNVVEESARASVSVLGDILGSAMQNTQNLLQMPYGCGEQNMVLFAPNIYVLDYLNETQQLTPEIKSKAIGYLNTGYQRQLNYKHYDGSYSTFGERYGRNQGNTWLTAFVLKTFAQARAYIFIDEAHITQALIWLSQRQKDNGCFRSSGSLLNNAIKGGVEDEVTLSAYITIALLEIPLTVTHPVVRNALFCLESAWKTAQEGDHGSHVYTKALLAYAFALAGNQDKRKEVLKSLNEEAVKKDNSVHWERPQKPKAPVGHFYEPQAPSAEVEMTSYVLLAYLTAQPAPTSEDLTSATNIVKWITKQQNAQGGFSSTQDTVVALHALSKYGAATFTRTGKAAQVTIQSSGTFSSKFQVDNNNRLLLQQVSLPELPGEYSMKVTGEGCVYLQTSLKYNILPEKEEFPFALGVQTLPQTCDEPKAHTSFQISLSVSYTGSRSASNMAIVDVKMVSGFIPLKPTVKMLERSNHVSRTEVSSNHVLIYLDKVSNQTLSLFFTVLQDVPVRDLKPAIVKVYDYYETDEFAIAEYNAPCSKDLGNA
UniProt Q8NE71: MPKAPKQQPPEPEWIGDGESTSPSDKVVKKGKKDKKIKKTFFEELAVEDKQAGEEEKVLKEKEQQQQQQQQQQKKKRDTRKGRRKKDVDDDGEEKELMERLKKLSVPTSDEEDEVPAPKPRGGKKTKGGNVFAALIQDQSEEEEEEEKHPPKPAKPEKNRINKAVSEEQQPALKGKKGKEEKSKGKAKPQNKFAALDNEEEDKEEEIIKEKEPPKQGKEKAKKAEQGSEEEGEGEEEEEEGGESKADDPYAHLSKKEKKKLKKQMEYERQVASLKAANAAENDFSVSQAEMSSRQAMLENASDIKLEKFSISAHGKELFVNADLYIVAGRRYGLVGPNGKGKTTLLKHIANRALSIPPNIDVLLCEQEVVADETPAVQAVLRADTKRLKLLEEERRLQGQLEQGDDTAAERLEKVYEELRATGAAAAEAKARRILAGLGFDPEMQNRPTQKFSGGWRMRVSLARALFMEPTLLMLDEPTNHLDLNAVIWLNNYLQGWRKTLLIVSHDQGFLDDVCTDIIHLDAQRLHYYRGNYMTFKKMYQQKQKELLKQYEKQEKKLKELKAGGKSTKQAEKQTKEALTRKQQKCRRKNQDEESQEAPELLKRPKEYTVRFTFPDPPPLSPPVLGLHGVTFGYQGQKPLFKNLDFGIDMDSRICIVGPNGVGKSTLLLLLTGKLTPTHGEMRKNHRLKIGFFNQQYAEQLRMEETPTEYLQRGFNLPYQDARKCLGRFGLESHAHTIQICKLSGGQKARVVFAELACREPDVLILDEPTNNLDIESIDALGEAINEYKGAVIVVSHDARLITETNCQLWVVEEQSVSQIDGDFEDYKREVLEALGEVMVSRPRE
UniProt P49748: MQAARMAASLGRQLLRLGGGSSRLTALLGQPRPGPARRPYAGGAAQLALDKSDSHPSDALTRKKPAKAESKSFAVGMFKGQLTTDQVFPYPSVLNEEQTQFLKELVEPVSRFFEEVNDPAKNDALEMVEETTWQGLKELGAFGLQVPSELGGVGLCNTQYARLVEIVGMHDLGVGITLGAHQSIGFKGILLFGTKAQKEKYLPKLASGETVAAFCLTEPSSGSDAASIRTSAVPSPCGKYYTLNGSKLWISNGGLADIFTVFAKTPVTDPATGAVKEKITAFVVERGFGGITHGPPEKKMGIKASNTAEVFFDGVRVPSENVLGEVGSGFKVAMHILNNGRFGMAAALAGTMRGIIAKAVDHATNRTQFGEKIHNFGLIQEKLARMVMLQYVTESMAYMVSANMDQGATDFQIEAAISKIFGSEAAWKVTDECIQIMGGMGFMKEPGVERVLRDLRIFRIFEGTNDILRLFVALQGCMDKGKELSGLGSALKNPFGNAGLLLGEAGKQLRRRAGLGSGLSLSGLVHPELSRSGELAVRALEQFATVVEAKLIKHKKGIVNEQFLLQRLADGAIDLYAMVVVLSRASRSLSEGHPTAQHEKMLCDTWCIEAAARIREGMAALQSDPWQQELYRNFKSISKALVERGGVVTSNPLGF
UniProt Q9NYB9: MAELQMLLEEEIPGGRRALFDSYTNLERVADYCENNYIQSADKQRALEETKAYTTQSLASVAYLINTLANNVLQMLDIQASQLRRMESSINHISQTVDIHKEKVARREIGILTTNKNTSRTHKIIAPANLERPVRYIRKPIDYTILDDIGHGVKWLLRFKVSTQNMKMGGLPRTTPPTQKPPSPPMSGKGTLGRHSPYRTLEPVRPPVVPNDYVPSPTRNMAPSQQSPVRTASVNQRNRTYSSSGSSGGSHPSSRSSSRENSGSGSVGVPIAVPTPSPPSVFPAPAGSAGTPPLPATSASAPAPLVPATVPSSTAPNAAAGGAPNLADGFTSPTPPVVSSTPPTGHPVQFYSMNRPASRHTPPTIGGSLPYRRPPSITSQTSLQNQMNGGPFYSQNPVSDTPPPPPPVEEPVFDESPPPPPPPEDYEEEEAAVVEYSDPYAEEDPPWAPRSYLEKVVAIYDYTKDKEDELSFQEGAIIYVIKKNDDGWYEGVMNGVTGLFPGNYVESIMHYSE
UniProt Q15057: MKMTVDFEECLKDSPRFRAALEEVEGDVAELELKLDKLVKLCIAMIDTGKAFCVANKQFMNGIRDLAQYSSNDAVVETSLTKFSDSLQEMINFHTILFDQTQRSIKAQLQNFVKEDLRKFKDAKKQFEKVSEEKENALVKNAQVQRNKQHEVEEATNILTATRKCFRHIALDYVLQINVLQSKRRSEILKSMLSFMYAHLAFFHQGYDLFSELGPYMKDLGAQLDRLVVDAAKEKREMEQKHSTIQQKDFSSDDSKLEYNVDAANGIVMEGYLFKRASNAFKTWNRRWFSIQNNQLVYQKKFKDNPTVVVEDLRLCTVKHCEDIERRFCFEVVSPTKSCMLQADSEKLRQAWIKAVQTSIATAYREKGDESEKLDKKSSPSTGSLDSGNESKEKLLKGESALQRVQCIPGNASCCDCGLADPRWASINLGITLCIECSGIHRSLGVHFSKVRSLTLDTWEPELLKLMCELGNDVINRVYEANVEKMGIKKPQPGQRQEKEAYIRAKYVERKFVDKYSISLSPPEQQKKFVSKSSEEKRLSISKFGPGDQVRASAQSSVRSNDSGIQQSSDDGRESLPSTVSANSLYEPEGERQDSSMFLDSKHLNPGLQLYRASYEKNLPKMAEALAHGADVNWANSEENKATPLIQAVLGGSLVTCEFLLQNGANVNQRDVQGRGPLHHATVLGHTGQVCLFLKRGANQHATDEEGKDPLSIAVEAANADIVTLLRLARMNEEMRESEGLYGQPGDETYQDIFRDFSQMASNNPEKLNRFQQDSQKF

Legend:
Assay in all cases: log2 fold change, soluble protein after heating vs DMSO (PISA); higher = thermal stabilisation; K562 lysate, 10 uM; active = over 0.2 and 3.5 SD of the protein, either way, in both replicates (recomputed)
[1] = compound: NCC(=O)Nc1ccc(-n2nc(C(F)(F)F)cc2-c2ccc3c(ccc4ccccc43)c2)cc1
Method in brief: (§1)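 Log-two fold change in thermal stability relative to solvent controls is reported from duplicates. For each sample, crude K562 extract from dounce-homogenised pellets in PBS pH 7.4 with 1 mM MgCl2, at 1 mg/mL protein, was treated with 10 μM compound for 30 min. Aliquots heated for 3 min across 48°C-58°C were pooled, brought to 0.5% NP-40 at 4°C and cleared at 21,000xg for 90 min. The supernatant was quantified by TMTpro 16plex LC-MS/MS with channel sums equalised.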

vorinostat = compound: O=C(CCCCCCC(=O)Nc1ccccc1)NO [vorinostat]
Method in brief: as §1

silmitasertib = compound: O=C(O)c1ccc2c(c1)nc(Nc1cccc(Cl)c1)c1ccncc12 [silmitasertib]
Method in brief: as §1

[2] = compound: O=C1NC(=O)C(c2cnc3ccccn23)=C1c1cn2c3c(cc(F)cc13)CN(C(=O)N1CCCCC1)CC2
Method in brief: as §1

entospletinib = compound: c1cn2cc(-c3ccc4cn[nH]c4c3)nc(Nc3ccc(N4CCOCC4)cc3)c2n1 [entospletinib]
Method in brief: as §1

Measured: log2 fold change

ABL1 isoform 2 (UniProt P00519)
active: vorinostat -0.328
inactive: [1] -0.003 | silmitasertib -0.019 | [2] -0.042 | entospletinib -0.008

AATF (UniProt Q9NY61)
inactive: [1] -0.094 | vorinostat 0.054 | silmitasertib 0.061 | [2] -0.05 | entospletinib -0.009

ACAT1 (UniProt P24752)
active: vorinostat -1.05
inactive: [1] 0.011 | silmitasertib -0.037 | [2] -0.014 | entospletinib 0.018

ACIN1 isoform 5 (UniProt Q9UKV3)
inactive: [1] 0.035 | vorinostat 0.007 | silmitasertib 0.001 | [2] -0.012 | entospletinib -0.003

ABCA3 (UniProt Q99758)
inactive: [1] -0.157 | vorinostat 0.087 | silmitasertib -0.062 | [2] 0 | entospletinib 0.28

ABCE1 (UniProt H0Y990)
inactive: [1] 0.137 | vorinostat 0.277 | silmitasertib 0.011 | [2] -0.026 | entospletinib 0.064

A2M (UniProt P01023)
inactive: [1] -0.011 | vorinostat 0.093 | silmitasertib -0.056 | [2] 0.063 | entospletinib -0.002

ABCF1 (UniProt Q8NE71)
inactive: [1] 0.004 | vorinostat -0.128 | silmitasertib 0.017 | [2] 0.013 | entospletinib 0.019

ACADVL isoform 3 (UniProt P49748)
inactive: [1] -0.005 | vorinostat 0.128 | silmitasertib -0.02 | [2] 0.018 | entospletinib -0.015

AAAS (UniProt Q9NRG9)
inactive: [1] 0.017 | vorinostat -0.173 | silmitasertib 0.033 | [2] -0.021 | entospletinib -0.007

ABHD5 (UniProt Q8WTS1)
inactive: [1] -0.173 | vorinostat 0.075 | silmitasertib 0 | [2] 0.014 | entospletinib -0.09

ABHD4 (UniProt Q8TB40)
inactive: [1] 0.027

ABCF3 (UniProt Q9NUQ8)
inactive: [1] 0.026 | silmitasertib 0.033 | [2] -0.004 | entospletinib -0.013
active: vorinostat -0.439

ACACA isoform 4 (UniProt Q13085)
inactive: [1] -0.003 | silmitasertib 0.016 | [2] -0.003 | entospletinib 0.027
active: vorinostat -0.449

ABI2 (UniProt Q9NYB9)
inactive: [1] 0.027 | vorinostat -0.024 | silmitasertib 0.017 | [2] -0.031 | entospletinib 0.009

ACO1 (UniProt P21399)
inactive: [1] -0.009 | vorinostat 0.096 | silmitasertib 0.015 | [2] -0.021 | entospletinib -0.005

AARS1 (UniProt H3BPK7)
inactive: [1] -0.173

AAK1, A0A096LP25
inactive: [1] -0.031 | vorinostat -0.217 | silmitasertib 0.075 | [2] 0.361 | entospletinib 0.241

ACAA2 (UniProt P42765)
inactive: [1] -0.014 | vorinostat 0.124 | silmitasertib -0.005 | [2] -0.043 | entospletinib 0.024

ABCC5 (UniProt O15440)
inactive: [1] 0.025 | vorinostat 0.042 | silmitasertib -0.023 | [2] -0.028 | entospletinib -0.036

Looked up one by one from the entries so far, two records:
ACO1 (UniProt P21399)
inactive: [1] -0.009 | vorinostat 0.096 | silmitasertib 0.015 | [2] -0.021 | entospletinib -0.005

AARS1 (UniProt H3BPK7)
inactive: [1] -0.173

Additional entries:

ACAP2 (UniProt Q15057)
inactive: [1] 0.007 | vorinostat -0.125 | silmitasertib 0.025 | [2] -0.008 | entospletinib -0.009

AARSD1 isoform 3 (UniProt Q9BTE6)
inactive: [1] -0.002 | vorinostat -0.189 | silmitasertib 0.052 | [2] 0.005 | entospletinib 0.013

ABI1 isoform 9 (UniProt Q8IZP0)
inactive: [1] 0.046 | vorinostat 0.026 | silmitasertib -0.025 | [2] 0.03 | entospletinib 0.018

ACAT2 (UniProt Q9BWD1)
inactive: [1] 0.009 | vorinostat -0.086 | silmitasertib -0.006 | [2] 0.04 | entospletinib 0.011

ABHD16A (UniProt O95870)
inactive: [1] 0.007 | silmitasertib -0.1 | [2] -0.056 | entospletinib -0.01
active: vorinostat 0.906

ABRAXAS1 (UniProt Q6UWZ7)
inactive: [1] -0.037 | vorinostat -0.037 | silmitasertib 0.025 | [2] -0.031 | entospletinib -0.041

AACS (UniProt Q86V21)
inactive: [1] -0.106 | vorinostat -0.144 | silmitasertib 0.024 | [2] 0.007 | entospletinib -0.019

ACE (UniProt P12821)
inactive: [1] -0.021 | vorinostat 0.002 | silmitasertib -0.034
